Measurements reported in PubChem BioAssay AID652243 (Drosophila RNAi Screening Center, 2013)

Screen: 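Fly regulators of androgen-dependent reporter output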 (primary screen)
System: Drosophila S2R+ cells
Reagent: long dsRNA against Drosophila genes
Timing: 72 h (48 h, then 24 h hormone)
Challenge: synthetic androgen R1881 at 10 nM for 24 h
Measurement: 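Firefly light from an androgen-responsive reporter and Renilla control light per well, raw and unnormalised, for each of two replicates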
Direction: firefly reporter light: higher = more light from androgen-responsive reporter; Renilla control light: higher = more constitutive control signal (cell number, transfection)
Rule for the call: 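Across duplicate plates, a knock-down whose log firefly/Renilla ratio shifted a set fold down or up from the GFP/LacZ control mean was a hit; the downward cut appears as both 1.5 and 3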
Calls: active = hit: reporter lowered or raised; inactive = no hit
The screen tested about 24,000 reagents; shown is a random part of those that have a named target and a result. Over the whole deposit, 246 (1%) are marked active. 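Plates not normalised; calls are printed but the firefly/Renilla ratio behind them is not deposited; fold cut for lowering reported inconsistently.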 The raw values are shown without normalisation. No sequences are given here. The record does not give: the amount of reagent.

gene	DRSC id	firefly reporter light, replicate 1	firefly reporter light, replicate 2	Renilla control light, replicate 1	Renilla control light, replicate 2	outcome
CG33136 (GeneID 318894)	DRSC05744	1.24e5	1.02e5	2.38e5	3.72e5	inactive
CG33136 (GeneID 318894)	DRSC29014	4.48e5	4.29e5	8.50e5	9.78e5	inactive
SkpD (GeneID 32995)	DRSC22208	5.58e5	4.02e5	1.99e6	2.28e6	inactive
CG5445 (GeneID 32722)	DRSC23180	6.58e5	5.16e5	9.12e5	5.76e5	inactive
HBS1 (GeneID 117365)	DRSC08544	1.64e6	1.07e6	2.78e6	2.16e6	inactive
HBS1 (GeneID 117365)	DRSC28426	4.10e5	6.37e5	5.16e5	6.26e5	inactive
AANATL3 (GeneID 35285)	DRSC02089	1.39e5	1.90e5	1.20e6	1.26e6	inactive
CG17168 (GeneID 3354996)	DRSC20904	2.18e5	1.33e5	5.11e5	3.21e5	inactive
CG17168 (GeneID 3354996)	DRSC29872	5.75e5	4.89e5	1.26e6	7.52e5	inactive
CG8159 (GeneID 41040)	DRSC16392	2.03e5	1.85e5	2.76e6	1.87e6	inactive
CG8159 (GeneID 41040)	DRSC27425	2.20e5	2.48e5	6.23e5	5.54e5	inactive
Cpr92F (GeneID 42450)	DRSC15819	3.59e5	3.73e5	3.74e6	4.48e6	inactive
CG12766 (GeneID 38462)	DRSC08295	2.49e5	2.65e5	2.42e6	2.47e6	inactive
Pfdn6 (GeneID 40176)	DRSC10915	2.08e5	1.93e5	2.90e6	1.97e6	inactive
Wnt2 (GeneID 35975)	DRSC05160	2.70e5	2.43e5	4.81e5	6.52e5	inactive
Wnt2 (GeneID 35975)	DRSC07574	4.03e5	2.19e5	2.06e6	1.26e6	inactive
CG14196 (GeneID 32915)	DRSC19551	1.67e5	99682	6.36e5	4.29e5	inactive
CG14196 (GeneID 32915)	DRSC26030	2.82e5	2.39e5	7.84e5	7.18e5	inactive
Akt (GeneID 41957)	DRSC14108	52252	53690	2.63e5	2.92e5	inactive
Akt (GeneID 41957)	DRSC36666					inactive
Akt (GeneID 41957)	DRSC36667					inactive
jing (GeneID 35555)	DRSC04923	2.05e5	2.69e5	1.94e6	2.24e6	inactive
jing (GeneID 35555)	DRSC05000	1.07e6	4.52e5	2.09e6	1.63e6	inactive
snoRNA:Psi28S-2566 (GeneID 3771936)	DRSC37900	63910	1.31e5	3.08e5	3.03e5	inactive

4 of these entries, reformatted:
{"gene": "CG14196 (GeneID 32915)", "DRSC id": "DRSC19551", "firefly reporter light, replicate 1": 1.67e5, "firefly reporter light, replicate 2": 99682, "Renilla control light, replicate 1": 6.36e5, "Renilla control light, replicate 2": 4.29e5, "outcome": "inactive"}
{"gene": "CG14196 (GeneID 32915)", "DRSC id": "DRSC26030", "firefly reporter light, replicate 1": 2.82e5, "firefly reporter light, replicate 2": 2.39e5, "Renilla control light, replicate 1": 7.84e5, "Renilla control light, replicate 2": 7.18e5, "outcome": "inactive"}
{"gene": "Akt (GeneID 41957)", "DRSC id": "DRSC14108", "firefly reporter light, replicate 1": 52252, "firefly reporter light, replicate 2": 53690, "Renilla control light, replicate 1": 2.63e5, "Renilla control light, replicate 2": 2.92e5, "outcome": "inactive"}
{"gene": "Akt (GeneID 41957)", "DRSC id": "DRSC36666", "outcome": "inactive"}
